Assay results as given in patent publication US10882869B2, “Condensed heterocyclic compounds and pesticides” (NISSAN CHEMICAL CORPORATION, priority 2015, dated 2021).
Some of these results come from one statement about several compounds together. The name of at least one read-out is uncertain. Some compounds share one range, which may span the group rather than tell each member. At least one compound was matched to its structure with a doubt left.

Tested on: Frankliniella occidentalis
Assay: Insecticidal activity on Frankliniella occidentalis (kidney bean leaf spray)
Assay type: in vivo
Conditions: 500 ppm solution sprayed (2.5 mg/cm^2), kidney bean leaves, 2 days after
Description: In styrol cups having an inner diameter of 7 cm, wet filter paper was laid, kidney bean leaves cut into a 3 cm square were laid on the paper, and each leaf was inoculated with 20 larvae of Frankliniella occidentalis. […] 2.5 ml of the solutions were sprayed from a rotary spray tower into the styrol cups (2.5 mg/cm^2).
2 Days after, dead insects were counted, and insect damage on kidney bean leaves was examined. The mortality was calculated by using the same equation as in Test Example 1.
The insect damage degree was evaluated as follows. 1: 0 to 20% insect damage, 2: 20 to 50% insect damage, 3: 50 to 70% insect damage, and 4: 70% or higher insect damge. The test was carried out in duplicate.

Compound | insect damage degree
CCSc1c(-c2nc3cc(C(F)(F)F)cnc3n2C)n(C)c2ccc(C(F)(F)F)cc12 [3-1-001b, 2-[3-(ethylthio)-1-methyl-5-(trifluoromethyl)-1H-indol-2-yl]-3-methyl-6-(trifluoromethyl)-3H-imidazo[4,5-b]pyridine] | 2 (20 to 50% insect damage)
CC[S+]([O-])c1c(-c2nc3cc(C(F)(F)F)cnc3n2C)n(C)c2ccc(C(F)(F)F)cc12 (stereo not drawn) [3-1-001c] | 2 (20 to 50% insect damage)
CCS(=O)(=O)c1c(-c2nc3cc(C(F)(F)F)cnc3n2C)sc2ccc(C(F)(F)F)cc12 [3-1-002a, 2-[3-(ethylsulfonyl)-5-(trifluoromethyl)benzo[b]thiophen-2-yl]-3-methyl-6-(trifluoromethyl)-3H-imidazo[4,5-b]pyridine] | 2 (20 to 50% insect damage)
